# Measured values taken from the supplement of paper PMC8728848.
# This is one part of the list.
# B1: NKp30 (Homo sapiens), O14931 (protein)
# chain: LWVSQPPEIRTLEGSSAFLPCSFNASQGRLAIGSVTWFRDEVVPGKEVRNGTPEFRGRLAPLASSRFLHDHQAELHIRDVRGHDASIYVCRVEVLGLGVGTGNGTRLVVEKEHPQLG
# Columns and labels:
# Experiment in all cases: glycan array binding signal (z-score within array); higher = stronger binding
# Details in all cases: glycan notation: IUPAC condensed, linker removed
# Fuc(a1-2)Gal = target: Fuc(a1-2)Gal
# Procedure, shortened: (§1)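 The binding signal is a Z-score computed within each array. Data were drawn from 3228 arrays in the Consortium for Functional Glycomics database, restricted to those with a known protein sequence. Scores were averaged over arrays of the same protein sequence at different concentrations or buffers, and over linkers, and negative values can be taken as non-binding.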
# Fuc(a1-2)Gal(b1-3)GalNAc = target: Fuc(a1-2)Gal(b1-3)GalNAc
# Procedure, shortened: as §1
# [1] = target: Fuc(a1-2)Gal(b1-3)GalNAc(b1-3)Gal
# Procedure, shortened: as §1
# [2] = target: Fuc(a1-2)Gal(b1-3)GalNAc(b1-3)Gal(a1-4)Gal(b1-4)Glc
# Procedure, shortened: as §1
# [3] = target: Fuc(a1-2)Gal(b1-3)GalNAc(b1-3)Gal(b1-4)Glc
# Procedure, shortened: as §1
# [4] = target: Fuc(a1-2)Gal(b1-3)GalNAc(b1-4)[Neu5Ac(a2-3)]Gal(b1-4)Glc
# Procedure, shortened: as §1
# [5] = target: Fuc(a1-2)Gal(b1-3)[Fuc(a1-4)]GlcNAc
# Procedure, shortened: as §1
# Fuc(a1-2)Gal(b1-4)Glc = target: Fuc(a1-2)Gal(b1-4)Glc
# Procedure, shortened: as §1
# Fuc(a1-2)Gal(b1-4)Glc6S = target: Fuc(a1-2)Gal(b1-4)Glc6S
# Procedure, shortened: as §1
# Fuc(a1-2)Gal(b1-4)GlcNAc = target: Fuc(a1-2)Gal(b1-4)GlcNAc
# Procedure, shortened: as §1
# [6] = target: Fuc(a1-2)Gal(b1-4)GlcNAc(b1-3)Gal(b1-4)GlcNAc
# Procedure, shortened: as §1
# [7] = target: Fuc(a1-2)Gal(b1-4)GlcNAc(b1-3)Gal(b1-4)GlcNAc(b1-3)Gal(b1-4)GlcNAc
# Procedure, shortened: as §1
# [8] = target: Fuc(a1-2)Gal(b1-4)GlcNAc6S
# Procedure, shortened: as §1
# [9] = target: Fuc(a1-2)Gal(b1-4)[Fuc(a1-3)]GalNAc(b1-3)Gal(b1-4)[Fuc(a1-3)]GlcNAc
# Procedure, shortened: as §1
# [10] = target: Fuc(a1-2)Gal(b1-4)[Fuc(a1-3)]GalNAc(b1-3)Gal(b1-4)[Fuc(a1-3)]GlcNAc(b1-3)Gal(b1-4)[Fuc(a1-3)]GalNAc
# Procedure, shortened: as §1
# [11] = target: Fuc(a1-2)Gal(b1-4)[Fuc(a1-3)]GlcNAc
# Procedure, shortened: as §1
# Fuc(a1-2)Gal6S(b1-4)Glc = target: Fuc(a1-2)Gal6S(b1-4)Glc
# Procedure, shortened: as §1
# [12] = target: Fuc(a1-2)Gal6S(b1-4)Glc6S
# Procedure, shortened: as §1
# [13] = target: Fuc(a1-2)Gal6S(b1-4)GlcNAc
# Procedure, shortened: as §1
# Fuc(a1-2)GlcNAc = target: Fuc(a1-2)GlcNAc
# Procedure, shortened: as §1
# Fuc(a1-2)[Gal(a1-3)]Gal = target: Fuc(a1-2)[Gal(a1-3)]Gal
# Procedure, shortened: as §1
# [14] = target: Fuc(a1-2)[Gal(a1-3)]Gal(b1-3)GlcNAc
# Procedure, shortened: as §1
# [15] = target: Fuc(a1-2)[Gal(a1-3)]Gal(b1-4)Glc
# Procedure, shortened: as §1
# [16] = target: Fuc(a1-2)[Gal(a1-3)]Gal(b1-4)GlcNAc
# Procedure, shortened: as §1
# [17] = target: Fuc(a1-2)[Gal(a1-3)]Gal(b1-4)[Fuc(a1-3)]GlcNAc
# Procedure, shortened: as §1
# [18] = target: Fuc(a1-2)[Gal(a1-4)]Gal(b1-4)GalNAc
# Procedure, shortened: as §1
# [19] = target: Fuc(a1-2)[GalNAc(a1-3)]Gal
# Procedure, shortened: as §1
# [20] = target: Fuc(a1-2)[GalNAc(a1-3)]Gal(b1-3)GlcNAc
# Procedure, shortened: as §1
# [21] = target: Fuc(a1-2)[GalNAc(a1-3)]Gal(b1-4)Glc
# Procedure, shortened: as §1
# [22] = target: Fuc(a1-2)[GalNAc(a1-3)]Gal(b1-4)GlcNAc
# Procedure, shortened: as §1
# [23] = target: Fuc(a1-2)[GalNAc(a1-3)]Gal(b1-4)[Fuc(a1-3)]GlcNAc
# Procedure, shortened: as §1
# [24] = target: Fuc(a1-2)[GalNAc(a1-4)]Gal(b1-4)GlcNAc
# Procedure, shortened: as §1
# Fuc(a1-3)GlcNAc = target: Fuc(a1-3)GlcNAc
# Procedure, shortened: as §1
# [25] = target: Fuc(a1-3)[Gal(b1-4)]Glc6S
# Procedure, shortened: as §1
# [26] = target: Fuc(a1-3)[Gal(b1-4)]GlcNAc
# Procedure, shortened: as §1
# [27] = target: Fuc(a1-3)[Gal(b1-4)]GlcNAc(b1-3)Gal(b1-3)[Fuc(a1-4)]GlcNAc
# Procedure, shortened: as §1
# [28] = target: Fuc(a1-3)[Gal(b1-4)]GlcNAc(b1-4)Gal(b1-4)[Fuc(a1-3)]GlcNAc
# Procedure, shortened: as §1
binder,measurement,setting,value
B1,glycan array binding signal (z-score),Fuc(a1-2)Gal,-0.068
same,glycan array binding signal (z-score),Fuc(a1-2)Gal(b1-3)GalNAc,-0.862
same,glycan array binding signal (z-score),[1],-0.277
same,glycan array binding signal (z-score),[2],-0.336
same,glycan array binding signal (z-score),[3],-0.109
same,glycan array binding signal (z-score),[4],0.315
same,glycan array binding signal (z-score),[5],-0.91
same,glycan array binding signal (z-score),Fuc(a1-2)Gal(b1-4)Glc,-0.657
same,glycan array binding signal (z-score),Fuc(a1-2)Gal(b1-4)Glc6S,-0.007
same,glycan array binding signal (z-score),Fuc(a1-2)Gal(b1-4)GlcNAc,-0.918
same,glycan array binding signal (z-score),[6],-0.633
same,glycan array binding signal (z-score),[7],0.364
same,glycan array binding signal (z-score),[8],0.882
same,glycan array binding signal (z-score),[9],-0.841
same,glycan array binding signal (z-score),[10],-0.325
same,glycan array binding signal (z-score),[11],-0.412
same,glycan array binding signal (z-score),Fuc(a1-2)Gal6S(b1-4)Glc,0.562
same,glycan array binding signal (z-score),[12],2.23
same,glycan array binding signal (z-score),[13],0.627
same,glycan array binding signal (z-score),Fuc(a1-2)GlcNAc,-0.232
same,glycan array binding signal (z-score),Fuc(a1-2)[Gal(a1-3)]Gal,-0.106
same,glycan array binding signal (z-score),[14],-0.619
same,glycan array binding signal (z-score),[15],-0.661
same,glycan array binding signal (z-score),[16],-0.444
same,glycan array binding signal (z-score),[17],-0.895
same,glycan array binding signal (z-score),[18],-0.714
same,glycan array binding signal (z-score),[19],-0.924
same,glycan array binding signal (z-score),[20],-1.15
same,glycan array binding signal (z-score),[21],-0.615
same,glycan array binding signal (z-score),[22],-0.649
same,glycan array binding signal (z-score),[23],-0.587
same,glycan array binding signal (z-score),[24],-0.754
same,glycan array binding signal (z-score),Fuc(a1-3)GlcNAc,-0.957
same,glycan array binding signal (z-score),[25],0.801
same,glycan array binding signal (z-score),[26],-0.932
same,glycan array binding signal (z-score),[27],0.821
same,glycan array binding signal (z-score),[28],-0.545

# Looked up one by one from the list above, 2 records:
binder,measurement,setting,value
B1,glycan array binding signal (z-score),[15],-0.661
same,glycan array binding signal (z-score),[17],-0.895
